Measurements reported in PubChem BioAssay AID602196 (INSERM, 2012)

- Assay: 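Modifiers of cisplatin sensitivity in A549 cells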
- System: human A549 lung cancer cells
- Reagent: siRNA pair against human genes
- Time to read-out: 48 h transfection before cisplatin; time from cisplatin to read-out not stated
- Treatment: cisplatin at a dose killing half of control-siRNA cells; exact dose and duration not given
- Measurement: 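Cisplatin cell death as a shift from the 50% death seen with control siRNA; siRNAs toxic or growth-blocking alone scored 0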
- Direction: two-siRNA summed score (-2 to +2): higher = both siRNAs protect from cisplatin killing; -2 means both sensitise; mean protection from cisplatin (shift in death) and protection from cisplatin (shift in death), siRNA C and protection from cisplatin (shift in death), siRNA D: higher = protection from cisplatin killing
- Hit rule: 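Each siRNA scores 0 if harmful alone by LDH or WST-1, otherwise +1 if it reduces and -1 if it increases cisplatin killing; a gene is active when both siRNAs agree (sum +2 or -2)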
- Meaning of the calls: active = both siRNAs shift cisplatin killing the same way; inactive = no consistent shift, or siRNA harmful alone
In all, the deposit lists about 23,000 reagents; this is an unselected part. 455 of all reagents (2%) were called active. 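Active includes both protection and sensitisation; some change values fall well beyond the stated -50 to +50 range.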 Unmarked entries are inactive. Not stated in the record: the amount of reagent.

target | two-siRNA summed score (-2 to +2) | mean protection from cisplatin (shift in death) (%) | protection from cisplatin (shift in death), siRNA C (%) | protection from cisplatin (shift in death), siRNA D (%)
LOC388444 | -1 | -11.4 | -22.2 | -0.5
FBXL22 | 0 | 3.8 | 4.5 | 3.1
CTNND2 | 0 | -0.2 | -5.8 | 5.4
LOC442619 | 0 | 7.3 | 0.3 | 14.4
GPAT4 | 1 | 12.2 | 17.4 | 7
ZNF230 | 1 | 5.6 | -4.5 | 15.8
SLC2A5 | -1 | -21.9 | -32.2 | -11.5
SLC35F5 | 0 | -2.2 | -6.7 | 2.3
ACTR3B | 0 | 2.4 | -5.9 | 10.8
GAD2 | -1 | -9.6 | 8.4 | -27.7
PTCHD4 | 0 | 9 | 14.5 | 3.5
EME1 | 0 | 5 | 7.9 | 2
SNX32 | 0 | 1.5 | -1.2 | 4.1
LOC286042 | -1 | -6.9 | -3.4 | -10.4
LOC152573 | 0 | 7.8 | 8.9 | 6.8
LOC440611 | 2 (active) | 22.2 | 20.2 | 24.2
PTER | 0 | 2.4 | -0.4 | 5.2
ZBTB5 | 0 | 0.9 | -3.9 | 5.7
FLJ43950 | 1 | 17.7 | 25.7 | 9.7
IFT56 | 0 | -0.6 | -8.4 | 7.2
LOC389685 | 1 | 15.4 | 19 | 11.7
LOC401848 | 0 | 10.9 | 21.5 | 0.3
CCNT1 | 0 | -7.1 | -10.6 | -3.6
CDK19 | 1 | 14.3 | 18.7 | 9.9
ACVR1C | 0 | 0.5 | -4 | 5
TRAF3 | 0 | 0.3 | -0.3 | 0.9
EFHC1 | 0 | -1.9 | -10.6 | 6.7
SYT2 | 0 | 10.4 | 6 | 14.9
TCEAL4 | 0 | 9.8 | 8.2 | 11.3
KCNE5 | -1 | -13.5 | -22 | -4.9
GNB1L | 0 | 1.3 | -11.4 | 14.1
XPO4 | 0 | 3.3 | -3.5 | 10.2
HNRNPLL | 0 | -19.6 | -8.1 | -31.2
CDK16 | 2 (active) | 23.8 | 28.5 | 19.1
OR4C11 | -1 | -5.5 | -3.3 | -7.8
UBALD2 | 1 | 11.9 | 19.4 | 4.4
ENTPD8 | 1 | 9.7 | 6.1 | 13.3
CYP20A1 | 0 | 0 | 14.8 | -14.8
CASD1 | 0 | 3.2 | 2.3 | 4.1
CHAF1A | 0 | 10.9 | 18.9 | 2.8
SLC25A39 | -1 | -11.3 | -30.2 | 7.5
REG1A | 0 | 4.4 | -8.6 | 17.3
SSBP2 | 0 | 12.8 | 8.5 | 17.1
HOXD8 | 1 | 9 | 26.8 | -8.9
LOC96597 | 0 | 3.7 | 2.7 | 4.8
CST4 | 0 | -3.4 | -4.5 | -2.3
LOC441243 | 0 | 2.7 | 0.3 | 5.1
BARX2 | 1 | 18.3 | 26.5 | 10.2
GPS1 | 0 | -0.1 | -6.4 | 6.2
LOC388278 | 0 | 2.1 | 2.2 | 1.9
LOC389025 | 0 | 2.7 | -6.3 | 11.7
EYA1 | -1 | 3.3 | 19.7 | -13.1
LOC342460 | 0 | 12.6 | 3.6 | 21.6
LKAAEAR1 | 0 | -0.1 | 4.3 | -4.5
TBC1D8 | 1 | 17.1 | 9.9 | 24.3
MAFK | 0 | 1.6 | 13.5 | -10.3
RXFP3 | -1 | -16.6 | -30.8 | -2.3
